This passage reports growth estimate results from the supplement of paper PMC5949888.

Most values lie at the floor of the assay. Slopes are relative: functional sequences can read slightly below zero.

This data set concerns Saccharomyces cerevisiae PS128 hsf1 delta, HSF1(1-493) fusion. Nature of the data set: growth estimate (transactivation domain function in HSF1 fusion, heat-shock survival) (a.u. (slope of normalised read count over time)); higher = stronger growth at 37°C, i.e. more transactivation activity. Conditions: library: random library.
For VYLECVGHRTFFAKLSE, the growth estimate was -0.246. Take VNTRGVIGTLYKRVSRGSRH: the growth estimate is below -0.25. As to TPRDKHAVIRFPVEEKCGRG, the growth estimate was below -0.25.

In the case of RWVSERIKSGSRRTYR, the growth estimate is below -0.25. The figure for GCVVLMLALENDMDGSSGTC is below -0.25. As to WLKESAM, the growth estimate is below -0.25.

Take VGESARLGCTERFWAMLSET: the growth estimate was below -0.25. The figure for VCHFFYVCRSVVHSSAACSI is below -0.25. For DVEELDTDAVAATGSSARGS, the growth estimate was below -0.25. The figure for VSRKLNHDALTSRAPSKGSM is below -0.25; for IHVSSPPAIGVGTRIG it is below -0.25.

As to NLSPGR, the growth estimate was below -0.25.

With FIDQSRTRVGGTGSLVLT, the growth estimate was below -0.25. The figure for VETRELAFHGFDVGALEYAG is below -0.25. With AGGILL, the growth estimate is below -0.25. As for DRCHTGGHNEVTVVGRRDAQ, the growth estimate was below -0.25. As to VLARLAVTSRWLFRYG, the growth estimate was below -0.25. Take EIVGSEE: the growth estimate was below -0.25. As for NVVV, the growth estimate is below -0.25.

PTSEWSSYSYVPGMQGW: the growth estimate is -0.182.

In the case of AVYSGDLGG, the growth estimate is below -0.25. On to PVLLAGSEWASNASLATAK, for which the growth estimate was below -0.25. YSLKICNSGSLAFA: the growth estimate is below -0.25. As for WLILPCWLCFHELLIHPIIF, the growth estimate was below -0.25. On to YRGTE, for which the growth estimate was below -0.25.

On to RLFLSAPMSYRIRGVFAGAV, for which the growth estimate was below -0.25.

Regarding EQRKVRCSAF, the growth estimate is below -0.25. For MAVVTLGRHLNLRLHQRG, the growth estimate is below -0.25. Take LTEVPGQ: the growth estimate was below -0.25. For HVSGPVHIDADPP, the growth estimate was below -0.25.

As for AEECYIGRAREPQWVLSQAL, the growth estimate was below -0.25. For the substance RSSNHQSSVVDVGNFVPLER, the growth estimate was below -0.25. The figure for LVRSASL is below -0.25; for PCQKGLRDVPFAPCCE it is below -0.25; for IKQDSLPGGRRSLTVSRHKM it is below -0.25. In the case of PAF, the growth estimate was below -0.25. For QIRWLGPLHYVSAQCTDRAR, the growth estimate was below -0.25.

In the case of VLPFRLIHI, the growth estimate is below -0.25. ANSAVEVSEFGPVSLTEG: the growth estimate was below -0.25. As to RTRSIPSTFITEHLK, the growth estimate is below -0.25. As for EPRAAQASGPLTPLGVRGVE, the growth estimate was below -0.25. ACVERGFRRMYRVEGSRKRD: the growth estimate is below -0.25. The figure for SNWLDPT is below -0.25; for ISASKLRSRFAGEYAVYLIL it is below -0.25; for NLWRTC it is below -0.25. With MDALVELGFGHVTVRQVRLQ, the growth estimate is below -0.25.

For GNVGWKLGHAYGKRCRTLDC, the growth estimate is below -0.25.

On to CIYEGQPRGRPTSGIHGVLT, for which the growth estimate was below -0.25. ISYCTSGPFQKTRFTGFNEM: the growth estimate is below -0.25. The figure for PGILSS is below -0.25.

As to RGGAQDRLRFQCTKEPTTTT, the growth estimate is below -0.25.

For the substance GAISVRGTPLPHPCAQVTLC, the growth estimate was below -0.25. As to AKGARIYRLKFKSV, the growth estimate was below -0.25. With CIRRDFQGTDKIASV, the growth estimate was below -0.25.

As for RRSEDVKLMLSGECVSKIPI, the growth estimate is below -0.25. The value for RKEYDPLAIQATGLRALGGP was below -0.25; that for HPLGNINL was below -0.25; that for CFGLLPIRSRGVKSRSKGIW was below -0.25. For VIGRSIWTG, the growth estimate is below -0.25. Consider YGLGAGKTGCNVVASTAPVG, for which the growth estimate was below -0.25. VRE: the growth estimate is below -0.25. The value for DGTANASNVASKSTAREGSA was below -0.25; that for SHTCKTRSHMLNSDKRVNRQ was below -0.25; that for HGEGC was below -0.25.

For YNMIR, the growth estimate was below -0.25. For the substance RCVRLYS, the growth estimate is below -0.25. As to PFLAIKRSW, the growth estimate is below -0.25. The figure for SLVQTWEALQTLERTWDLAR is -0.141; for TGEPNC it is below -0.25. As for QCVGDIASARILL, the growth estimate was below -0.25.

As to PPFKGT, the growth estimate was below -0.25. The value for NSPSGMGHLATQLIRATRSD was below -0.25. Consider FDWY, for which the growth estimate was below -0.25.

Take NVGCS: the growth estimate is below -0.25. Take DAVISAVSIADAAS: the growth estimate is below -0.25.

As for CPNKGARHVQTAPLDGSRAL, the growth estimate is below -0.25. On to VVKRC, for which the growth estimate was below -0.25.

With ERCLRLNDCGRIVMFLRLQP, the growth estimate was below -0.25. Consider SSWHTSLLLRWVWRWRHMHS, for which the growth estimate was below -0.25.

As for RAYVPKVCIG, the growth estimate is below -0.25.

In the case of RRLKSIGRKRSCA, the growth estimate was below -0.25.

Turning to WRS, the growth estimate is below -0.25. On to NSYNRILAS, for which the growth estimate is below -0.25. For EDEIIDGIPQPKQWDL, the growth estimate was below -0.25. Consider RESEPPDNCPVGMGNKSETF, for which the growth estimate is below -0.25. Take PYILWDLPLPRFRPMFARL: the growth estimate was below -0.25. The value for YQDIRAER was below -0.25; that for LRQHRLNVTVTS was below -0.25; that for ICMKLRSSDRGPCRPVEIPY was below -0.25.

As to SYAYVPAYDSRHAPPEWS, the growth estimate is below -0.25. Regarding KGELVRDATGPRILSSTCHP, the growth estimate was below -0.25.

Regarding SSHTHPVVLCKH, the growth estimate was below -0.25. TRLNVKECCLPMQYWATKLR: the growth estimate is below -0.25. With VTIELRWAREKLCSAIRYFR, the growth estimate was below -0.25. TPALELWGLTSAEAAHSRAI: the growth estimate was below -0.25. The figure for IKRGRTSVITAKIAHTKNSR is below -0.25.

Regarding GSCGSTTNCECALKSCCTEV, the growth estimate is below -0.25. Regarding FAGVITVKGLKPHKIWAAPA, the growth estimate is below -0.25.

Regarding LDPIPFHEGFLRQRRELVKF, the growth estimate is below -0.25.

Regarding KLPHP, the growth estimate was -0.25.

In the case of NPFTFDRNRTVR, the growth estimate is below -0.25. As to TNISRIVFANAACTRFSGGR, the growth estimate was below -0.25. QLLRHLHVANGGRHIGGARG: the growth estimate is below -0.25. On to SGCKAPRLESPAIFCFGEIV, for which the growth estimate was below -0.25. Take QLRGRIFQEPTHKGNWSGLT: the growth estimate is below -0.25. The figure for GGNQNPLELKGLGEP is below -0.25. The value for DITVAADGRTQLTGSANVRH was below -0.25; that for SRIKRREILGIRSD was below -0.25. Turning to TTQETLLGAGAQGSLCAGES, the growth estimate is below -0.25. The figure for KNDKLVKSLCAGARSTGILG is below -0.25; for YSKLEIGIMYCSRSQIDPVK it is below -0.25.

Consider KYDCRRGCLPRSLPDKR, for which the growth estimate is below -0.25. For NFFALPRYAARLRRSRWI, the growth estimate was below -0.25. For the substance GCEFDTRKLALFERITG, the growth estimate was below -0.25.
